Experimental data from patent publication US8465939B2, “Aging-related circulating particle-associated lipoprotein B oxidase (apoBNOX) and inhibitors thereof” (Nox Technologies, Inc., priority 2010, dated 2013).
For some assays here: At least one compound was matched to its structure with a doubt left. Some of these results come from one statement about several compounds together.

Experiments:
Sensitivity to oxidation = assay type: physicochemical
From the text: This last characteristic might be problematic if hydroxytyrosol or tyrosol are pretended to be used in fat-based food products or supplements. Oxidation of hydroxytyrosol and tyrosol clearly affect the stability and preservation of both compounds. The hydroxytyrosol and tyrosol derivatives presented in this invention avoid these two problems. The hydroxyl groups on these derivatives are protected from oxidation by preparing hydroxytyrosol or tyrosol fatty acid esters. When compared to hydroxytyrosol and tyrosol, the hydroxytyrosol and tyrosol fatty acid esters are much more resistant against oxidation. At the same time, depending on the length of the fatty acid chain of the fatty acid esters, their solubility in fat-based food products will be increased. Hydroxytyrosol or tyrosol esters with a wide range of solubilities can be prepared, from totally water-soluble hydroxytyrosol or tyrosol derivatives when acetic acid is used in the formation of the ester to totally oil-soluble hydroxytyrosol or tyrosol derivatives when oleic acid is used in the formation of the ester. The hydroxytyrosol and tyrosol derivatives are hydrolyse in the intestinal tract of rats to their two components, hydroxytyrosol or tyrosol and the fatty acid. […] This implies that, after their hydrolysis, mentioned fatty acid esters can act as antioxidants to reduce or ameliorate diseases with an oxidative stress origin.

apoBNOX = experiment: superoxide dismutase-resistant apoBNOX activity by ferricytochrome c reduction; assay type: biochemical; conditions: 100 μM tyrosol; listed as tyrosol
Method: Reduction of ferricytochrome c by superoxide was employed as the measure of superoxide dismutase-resistant apoBNOX activity (Mayo, L. A. and Curnutte, J., 1990, Meth. Enzyme. 186: 567-575; Butler, J. et al., 1982, J. Biol. Chem. 257: 10747-10750). The assay consists of 150 μl buffy coats in PBSG buffer (8.06 g NaCl, 0.2 g KCl, 0.18 g Na2HPO4, 0.13 g CaCl2, 0.1 MgCl2, 1.35 g glucose dissolved in 1000 ml deionized water, adjusted to pH 7.4, filtered and stored at 4° C.). Rates were determined using an SLM Aminco DW-2000 spectrophotometer (Milton Roy, Rochester, N.Y.) in the dual wave length mode of operation with continuous measurements over 1 min every 1.5 min. After 45 min, test compounds were added and the reaction was continued for an additional 45 min. After 45 min, a millimolar extinction coefficient of […] was used for reduced ferricytochrome c.
arNOX activity was assayed from measurements of superoxide production based on a standard method where reduction of ferricytochrome c was monitored from the increase in absorbance at 550 nm with reference at 540 nm (Butler et al., 1982). […] Rates were determined over 1 min at intervals of 1.5 min using a SLM Aminco DW 2000 spectrophotometer (Milton Roy, Rochester, N.Y.) in the dual wavelength mode of operation. […]

| SMILES | sensitivity to oxidation (Sensitivity to oxidation) | apoBNOX activity, % inhibition (apoBNOX) |
| --- | --- | --- |
| OCCc1ccc(O)c(O)c1 [Hydroxytyrosol, hydroxytyrosol] | sensitive to oxidation |  |
| OCCc1ccc(O)cc1 [Tyrosol, 4-hydroxyphenethyl alcohol] |  | 65-70% |
